For 1 compound, IC90 results are on record in patent publication US6492515B2, “4,4-disubstituted-1, 4-dihydro-2H-3, 1-benzoxazin-2-ones useful as HIV reverse transcriptase inhibitors and intermediates and processes for making the same” (Bristol-Myers Squibb Pharma Company, priority 1996, dated 2002).

Converted amounts (≈) assume the structure as drawn.

The assay concerns HIV-1 (RF). The assay can be described thus: HIV RNA assay: microplate based compound evaluation in HIV-1 infected MT-2 cells. Format: cell-based. The following applies: Human immunodeficiency virus 1, MT2, 72 h; HIV-1 (RF) infected MT-2 cells, 3 days; virus dilutions selected to give this value; read-out: IC90 value (concentration of compound required to reduce the HIV RNA level by 90%). The method, then:
DNA Plasmids and in vitro RNA Transcripts
Plasmid pDAB 72 containing both gag and pol sequences of BH10 (bp 113-1816) cloned into PTZ 19R was prepared according to Erickson-Viitanen et al. AIDS Research and Human Retroviruses 1989, 5, 577. The plasmid was linearized with Bam HI prior to the generation of in vitro RNA transcripts using the Riboprobe Gemini system II kit (Promega) with T7 RNA polymerase. Synthesized RNA was purified by treatment with RNase free DNAse (Promega), phenol-chloroform extraction, and ethanol precipitation. RNA transcripts were dissolved in water, and stored at −70° C. The concentration of RNA was determined from the A260.
Biotinylated capture probes were purified by HPLC after synthesis on an Applied Biosystems (Foster City, Calif.) DNA synthesizer by addition of biotin to the 5′ terminal end of the oligonucleotide, using the biotin-phosphoramidite reagent of Cocuzza, Tet. Lett. 1989, 30, 6287. […]
MT-2 and MT-4 cells were maintained in RPMI 1640 supplemented with 5% fetal calf serum (FCS) for MT-2 cells or 10% FCS for MT-4 cells, 2 mM L-glutamine and 50 μg/mL gentamycin, all from Gibco. […] Infectious titers of HIV-1 (RF) stocks were 1-3×10^7 PFU (plaque forming units)/mL as measured by plaque assay on MT-2 cells (see below). […]

As to `Nc1ccn([C@H]2CC[C@@H](CO)O2)c(=O)n1` [ddC, 2′,3′-dideoxycytidine], the IC90 was found to be 0.2 µg/mL (≈ 0.947 µM).
